Measured values taken from patent US20110118298A1, “COMPOSITIONS, KITS, AND METHODS FOR IDENTIFICATION, ASSESSMENT, PREVENTION, AND THERAPY OF CANCER” (INFINITY PHARMACEUTICALS, INC., priority 2009, published 2011).
For at least one compound, name, drawing or mass did not settle the structure.

Key:
[1] = tested on: H3122 (EML4-ALK), MGH006 (EML4-ALK) cells; experiment: Cell survival (Syto60) and Western blot, ALK-rearranged lung cancer models; assay type: cell-based, human; conditions: 17-AAG
[2] = tested on: H1975 (EGFR L858R/T790M), HCC827 (EGFR del 19) cells; experiment: Cell survival (Syto60) and Western blot, EGFR mutant lung cancer models; assay type: cell-based, human; conditions: 17-AAG

`C=CCNC1=C2C[C@@H](C)C[C@H](OC)[C@H](O)[C@@H](C)/C=C(\C)[C@H](OC(N)=O)[C@@H](OC)/C=C\C=C(/C)C(=O)NC(=CC1=O)C2=O` [Compound 17-AAG, tanespimycin, reference compound] was tested. Which “sensitivity to Hsp90 inhibition (protein stability and viability)” value [1] did it give?
Its value is “highly sensitive”.

And the “sensitivity to Hsp90 inhibition” value [2]?
The value was “sensitive”.
